For the data set, the system named is H. pylori cells. Description: Ni content of H. pylori cells by ICP-MS. The data set is classed as cell-based.

With colloidal bismuth subcitrate [CBS], the “Normalized Ni content (%)” value by setting is: (CBS 2 μM) 86%; (CBS 5 μM) 74%; (CBS 10 μM) 69%; (CBS 20 μM) 88%. Further, where the note is “CBS supplemented to culture medium”, the “nickel content of H. pylori cells” value was “only a slight decline”.

The record behind these values is article PMC5779714, “Metallochaperone UreG serves as a new target for design of urease inhibitor: A novel strategy for development of antimicrobials” (PLoS Biology, 2018).
